This is one part of the list.
target: OsWRKY34 (Oryza sativa, UniProt Q0JBA9 1-250); experiment: protein-binding microarray (RPBM); PBS, 2% BSA, 51.3 ng/ul salmon testes DNA, 50 uM zinc acetate, 200 nM TF, 25 C, 1 h; high values mean tight binding; details: protein: recombinant; tags: N-terminal polyhistidine and DsRed monomer fusion (pET32a); label: CyDye5-dUTP incorporated in the synthesized complementary strand; 3' TTTTT single-stranded linker to array surface; dsDNA, one strand shown
How it was run: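 Using Ni–NTA, transcription factors fused N-terminally to polyhistidine and DsRed were purified after expression in E. coli BL21-CodonPlus. These were incubated at 200 nM with a blocked, double-stranded custom Agilent array for 1 h at 25 °C in a buffer containing 50 µM zinc acetate, and the array was washed. The binding signal is per-feature fluorescence intensity (arbitrary units) on an Axon 4000B scanner.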

Amino acid sequences for entries named in this document (tags omitted).
UniProt Q0JBA9, entry or part of it: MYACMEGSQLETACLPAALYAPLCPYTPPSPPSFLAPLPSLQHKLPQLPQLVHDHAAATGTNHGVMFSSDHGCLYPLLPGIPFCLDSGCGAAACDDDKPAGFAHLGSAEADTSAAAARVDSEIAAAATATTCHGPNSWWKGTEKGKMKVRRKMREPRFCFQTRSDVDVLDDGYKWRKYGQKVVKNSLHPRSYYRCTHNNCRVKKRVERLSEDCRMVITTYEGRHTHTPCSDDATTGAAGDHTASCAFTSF

**Q.** With “CCACCGCAAGTCTGCCGTGGTCACCGCGCCTTTTACTTTACGGAGTCACCTAGTGCAG” as the sequence, how does the binding signal read?
**A.** Its binding signal is 8450 fluorescence intensity (a.u.).

**Q.** How did the binding signal turn out when “TTTCTACTTTACTTCCTGTTCTTCACTATGTTTCAGAGATCGGAGTCACCTAGTGCAG” was run?
**A.** Its binding signal is 8790 fluorescence intensity (a.u.).

**Q.** With “CTGTTATGTTTGTTCCATTTGGAGCCTTGGCTGTTCATCCCGGAGTCACCTAGTGCAG” as the sequence, how does the binding signal read?
**A.** The binding signal was 9260 fluorescence intensity (a.u.).

**Q.** How did the binding signal turn out when “TGGAGTCCCTGCCGCCCATACTCTCCGCCCGCGCGATCCCCGGAGTCACCTAGTGCAG” was run?
**A.** The binding signal was 10400 fluorescence intensity (a.u.).

**Q.** How did the binding signal turn out when “GTGCTACCTCCATCCCAATATACTTGTCGTTTTAAGTTTTCGGAGTCACCTAGTGCAG” was run?
**A.** The binding signal was 11800 fluorescence intensity (a.u.).

**Q.** For “AGGAAGATAATTTAACACATACTTGTCGATCTCTATAATACGGAGTCACCTAGTGCAG”, which binding signal is on record?
**A.** The binding signal was 8250 fluorescence intensity (a.u.).

**Q.** With “CTCCACCACACATGCTTCAAGTGACTAGGAGGGCATCCTCCGGAGTCACCTAGTGCAG” as the sequence, how does the binding signal read?
**A.** The binding signal was 8590 fluorescence intensity (a.u.).

**Q.** “TGCTACTACTTGCTGTGTGTTTCTGAGGAAAATTTATTAGCGGAGTCACCTAGTGCAG” was tested. Which binding signal did it give?
**A.** Its binding signal is 8770 fluorescence intensity (a.u.).

**Q.** How did the binding signal turn out when “CTCCCGTGTCCCATTTAAAACCTTCTTCTTCTTCTTCGCTCGGAGTCACCTAGTGCAG” was run?
**A.** The binding signal was 8650 fluorescence intensity (a.u.).

**Q.** For “ATTTATTATTTTATATATTGGTGCATTTTATTCAAACTCACGGAGTCACCTAGTGCAG”, which binding signal is on record?
**A.** The binding signal was 8850 fluorescence intensity (a.u.).

**Q.** For “CCTCTCCGACTCCCGCCAATCCCATCCGTCCATCCATCTCCGGAGTCACCTAGTGCAG”, which binding signal is on record?
**A.** The binding signal was 9690 fluorescence intensity (a.u.).

**Q.** “CTGTGTGTTGTTTCTTGTATCCTGTGCGTGGTCGGGTTAACGGAGTCACCTAGTGCAG” was tested. Which binding signal did it give?
**A.** The binding signal was 12700 fluorescence intensity (a.u.).

**Q.** “AAGGACCCGTTCTATCTGGTTTTGCGGTTGAAGGATAGAACGGAGTCACCTAGTGCAG” was tested. Which binding signal did it give?
**A.** The binding signal was 28000 fluorescence intensity (a.u.).

**Q.** With “CACCAATACTAGACACTAGCACAACATTATATTCTCTCTTCGGAGTCACCTAGTGCAG” as the sequence, how does the binding signal read?
**A.** The binding signal was 8560 fluorescence intensity (a.u.).

**Q.** Which binding signal does the source give for “TCGCAGCCTCGCCTCTGAATCGCTCGCCGACTCGCGTTTTCGGAGTCACCTAGTGCAG” here?
**A.** The binding signal was 9630 fluorescence intensity (a.u.).

**Q.** “CCCTCGGGTTCGACATCATCATACTACCATCGCCGCAGCCCGGAGTCACCTAGTGCAG” was tested. Which binding signal did it give?
**A.** Its binding signal is 8250 fluorescence intensity (a.u.).

**Q.** For “ATTGTTGACACTATGACTTTCTTACTTTGACCGCAATTTTCGGAGTCACCTAGTGCAG”, which binding signal is on record?
**A.** Its binding signal is 11800 fluorescence intensity (a.u.).

**Q.** “AATAAATATCCCACCCATCCATCCACCCGAGGACACTACACGGAGTCACCTAGTGCAG” was tested. Which binding signal did it give?
**A.** Its binding signal is 8740 fluorescence intensity (a.u.).

**Q.** Which binding signal does the source give for “ACCATGTGCTCCGTTCTCTTGTCCTGCCTATCTATCTAACCGGAGTCACCTAGTGCAG” here?
**A.** Its binding signal is 12400 fluorescence intensity (a.u.).

**Q.** With “GGCCAATCCACGCCTCCGAACAAGTAGCCCACTAGATCATCGGAGTCACCTAGTGCAG” as the sequence, how does the binding signal read?
**A.** Its binding signal is 10200 fluorescence intensity (a.u.).

**Q.** Which binding signal does the source give for “AAAGAGAAACCCTTCAAAACCTCGGCTCCTCGTTCTCCCACGGAGTCACCTAGTGCAG” here?
**A.** The binding signal was 8460 fluorescence intensity (a.u.).

**Q.** For “GTTCAACATGTCAACCGCTTGTTCTTGTACTTGAGTGGAACGGAGTCACCTAGTGCAG”, which binding signal is on record?
**A.** Its binding signal is 8890 fluorescence intensity (a.u.).

**Q.** With “TGCGTGATTTTTTTATTAAGGTCTCACAGTTACAATTTAGCGGAGTCACCTAGTGCAG” as the sequence, how does the binding signal read?
**A.** Its binding signal is 8740 fluorescence intensity (a.u.).

**Q.** “GTAGAGTGTAGTTTCTATTGTGATGTCTTATTGACATGGCCGGAGTCACCTAGTGCAG” was tested. Which binding signal did it give?
**A.** The binding signal was 8070 fluorescence intensity (a.u.).

**Q.** With “ACATCTGGTGGTGCAGGGGTATTTTAGTCATTTCACGAGTCGGAGTCACCTAGTGCAG” as the sequence, how does the binding signal read?
**A.** Its binding signal is 8930 fluorescence intensity (a.u.).

**Q.** Which binding signal does the source give for “GTGAACTTCAACATGATGCTATTACATTTTTACACACTGACGGAGTCACCTAGTGCAG” here?
**A.** Its binding signal is 9720 fluorescence intensity (a.u.).

**Q.** With “TCACGTTTGACCGTTCGTTTTATTTGAAATTTTTTTACGACGGAGTCACCTAGTGCAG” as the sequence, how does the binding signal read?
**A.** Its binding signal is 10300 fluorescence intensity (a.u.).

**Q.** Which binding signal does the source give for “TGGGACCCACGTAAGCCCCACATGTCAGCCTGTCCACGTCCGGAGTCACCTAGTGCAG” here?
**A.** The binding signal was 9010 fluorescence intensity (a.u.).

**Q.** Which binding signal does the source give for “CGTCTCATTTTAAATACAATTGTGGGTTTATTGTCCAACGCGGAGTCACCTAGTGCAG” here?
**A.** Its binding signal is 8670 fluorescence intensity (a.u.).

**Q.** How did the binding signal turn out when “ACATTGATACTTGATGATACTCGTTGATATTTGCTTATACCGGAGTCACCTAGTGCAG” was run?
**A.** Its binding signal is 9090 fluorescence intensity (a.u.).

**Q.** With “CAATCATGCTTCTGTTAACCGCTTCTGTTAACCCTTAGTACGGAGTCACCTAGTGCAG” as the sequence, how does the binding signal read?
**A.** The binding signal was 11200 fluorescence intensity (a.u.).

**Q.** Which binding signal does the source give for “CCGACACTTGGACCGTGACGCCCAATTGGTCCTTTGACCGCGGAGTCACCTAGTGCAG” here?
**A.** The binding signal was 8570 fluorescence intensity (a.u.).

**Q.** How did the binding signal turn out when “TTCATTCATATGGTGTAACTTTTTGTCGCTGTAGGATCGCCGGAGTCACCTAGTGCAG” was run?
**A.** The binding signal was 8130 fluorescence intensity (a.u.).

**Q.** “AAGATTTTTCACGCTCTCTCTCTCTCTCTCTCTCTCTCCTCGGAGTCACCTAGTGCAG” was tested. Which binding signal did it give?
**A.** The binding signal was 10400 fluorescence intensity (a.u.).

**Q.** Which binding signal does the source give for “CATCGCCGCCACCTCCATTGATCTCTTCACCGGTGAAGAACGGAGTCACCTAGTGCAG” here?
**A.** Its binding signal is 8710 fluorescence intensity (a.u.).

**Q.** How did the binding signal turn out when “CCGCCGTCCGCCGCCATCCTCGGTGCCGCCGTGGCCTGTGCGGAGTCACCTAGTGCAG” was run?
**A.** The binding signal was 9120 fluorescence intensity (a.u.).

**Q.** With “TCACAAAATGTACATCTCTTATATAGTTGGTCATTTCTTCCGGAGTCACCTAGTGCAG” as the sequence, how does the binding signal read?
**A.** The binding signal was 8640 fluorescence intensity (a.u.).

**Q.** For “ACTGCGCACACTCTCCAAGTTGCAAGTAGTGTGTGTTGACCGGAGTCACCTAGTGCAG”, which binding signal is on record?
**A.** The binding signal was 8450 fluorescence intensity (a.u.).

**Q.** Which binding signal does the source give for “CCGAAACTCTGTTCTTTCTTCCTTTTGGCCCAATCCTTTTCGGAGTCACCTAGTGCAG” here?
**A.** The binding signal was 11000 fluorescence intensity (a.u.).

**Q.** For “ATCTGGATTCCTTTGCTTATCCTTTCTGGCTATAATCTCTCGGAGTCACCTAGTGCAG”, which binding signal is on record?
**A.** The binding signal was 9330 fluorescence intensity (a.u.).

**Q.** Which binding signal does the source give for “GTCACCGCCGCCGCCATTCCCGACGAGGAGAAGCTCCGCACGGAGTCACCTAGTGCAG” here?
**A.** The binding signal was 8610 fluorescence intensity (a.u.).

**Q.** Which binding signal does the source give for “TCATCTGCCTTCACTCCTCCTCATCGTCTTTTTTTTTTTTCGGAGTCACCTAGTGCAG” here?
**A.** The binding signal was 9750 fluorescence intensity (a.u.).

— publication PMC7819943, “Rice protein-binding microarrays: a tool to detect cis-acting elements near promoter regions in rice”
